Some results were stated once for a whole list of compounds, not compound by compound.
Assay: Chemical and storage stability
Type: physicochemical

Substance | hydrolytic stability of the triethoxysilane moieties
Rhodamine B PentaACA APTES Conjugate [Rhodamine B derivative 4] | hydrolytically unstable
Rhodamine B ACA APTES Conjugate [Rhodamine B derivative 2] | hydrolytically unstable
Rhodamine B TriACA APTES Conjugate [Rhodamine B derivative 3] | hydrolytically unstable

— patent publication US8143072B2, “System for detecting nanoparticles using modulated surface plasmon resonance” (The University of Toledo, priority 2006, dated 2012)
